# Reference: the supplement of paper PMC9135407
# “And” between values parts separate entries of the source, which are not always exact repeats. Identical values can stand only once. Counter-ions that a name gives are not always drawn. ± gives the standard deviation of the averaged measurements. This is one part of the list. Part of the spread comes from offsets between plates or batches.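 Culture-activated primary human stellate myofibroblasts, where regained lipid droplets signal inactivation. Value: share of Hoechst-counted cells above a per-plate Bodipy cutoff, in duplicate wells, with DMSO negative and nortriptyline positive controls on each plate. Hits: a control-normalized score above the plate's top-tenth-percentile nortriptyline wells, or one of a plate's three best wells. Final well concentrations are not given.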
# Test system: primary human hepatic stellate cells (donor 1)
# Assay: percent Bodipy-positive cells; higher = more lipid droplet accumulation
# Details: 48 h
# Method: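 Primary lipid accumulation screen in primary human hepatic stellate cell myofibroblasts (donor 1, passage 8) in 384-well plates. 100 nL of library compound was pin-transferred into 30 µL medium in duplicate, and cells were treated for 48 h. The 'Scaled' score combines distance from plate baseline, toxicity and reproducibility penalties, and is normalised to nortriptyline (positive) and DMSO (negative) controls on each plate. A hit is defined as scaled >0.85 or among the top 3 wells per plate.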
# [1] = library stock concentration: 2 mM
# [2] = library stock concentration: 1 mM
# [3] = library stock concentration: 10 mM
# [4] = library stock concentration: 3.33 mM
smiles,measurement,setting,value
C[C@@H](O)[C@@H]1NC(=O)[C@H](CCCCN)NC(=O)[C@@H](Cc2c[nH]c3ccccc23)NC(=O)[C@H](Cc2ccccc2)NC(=O)[C@@H](NC(=O)[C@H](N)Cc2ccccc2)CSSC[C@@H](C(=O)N[C@H](CO)[C@@H](C)O)NC1=O [Octreotide],percent Bodipy-positive cells,[1],10.6 ± 0.45%
C#C[C@]1(O)CC[C@H]2[C@@H]3CCC4=CCCC[C@@H]4[C@H]3CC[C@@]21C [Lynestrenol],percent Bodipy-positive cells,,30.3 ± 9.8%
CCCCCCCCCCCCCCCCOCC(COP(=O)(O)OCC[N+](C)(C)C)OCC (stereo not given) [2-O-ethyl PAF C-16],percent Bodipy-positive cells,[2],8.16 ± 1.6%
"CN(C)C(N)=NCCC[C@H](N)C(=O)O [N^G,N^G-Dimethylarginine hydrochloride]",percent Bodipy-positive cells,[3],38.8 ± 6.8%
COC(=O)C1=C(C#N)NC(C)=C(C(=O)OC(C)C)C1c1cccc([N+](=O)[O-])c1 (stereo not given) [Nilvadipine],percent Bodipy-positive cells,[4],23.8 ± 16%
same,percent Bodipy-positive cells,[3],22.1 ± 11%
N#Cc1cc2nc(O)c(O)nc2cc1[N+](=O)[O-] [CNQX disodium salt],percent Bodipy-positive cells,[3],5.65 ± 0.76%
N#Cc1cc2nc(O)c(O)nc2cc1[N+](=O)[O-] [CNQX disodium],percent Bodipy-positive cells,[3],43 ± 3.6%
CCCCCCCCCCCCCCCCCCOCC(O)COP(=O)([O-])OCC[N+](C)(C)C (stereo not given),percent Bodipy-positive cells,[2],14.7 ± 0.83%
C[C@@H](CN1CCC(Cc2ccccc2)CC1)[C@@H](O)c1ccc(O)cc1 [Ro 25-6981 hydrochloride],percent Bodipy-positive cells,[3],36.8 ± 1.6%
C[C@@H](CN1CCC(Cc2ccccc2)CC1)[C@@H](O)c1ccc(O)cc1 [Ro 25-6981 maleate],percent Bodipy-positive cells,[3],28.7 ± 8.7%
"CCCCC[C@H](O)CC[C@H]1[C@H](O)CC(=O)[C@@H]1CCCCCCC(=O)O [13,14-Dihydro-PGE1]",percent Bodipy-positive cells,[2],6.08 ± 4.5%
CNc1nc(Nc2cn(C(C)(C)C#N)nc2C)ncc1C(F)(F)F,percent Bodipy-positive cells,[4],23.4 ± 11%
same,percent Bodipy-positive cells,[3],47.8 ± 5.9%
CC1CC(OC(=O)c2ccccc2O)CC(C)(C)C1 (stereo not given) [Homosalate],percent Bodipy-positive cells,,7.61 ± 0.2%
same,percent Bodipy-positive cells,library stock concentration: 7.6 mM,34.8 ± 27%
N[C@@H](CS(=O)O)C(=O)O [L-Cysteinesulfinic Acid],percent Bodipy-positive cells,[3],50.9 ± 20%
N[C@@H](CS(=O)O)C(=O)O [L-Cysteinesulfinic acid],percent Bodipy-positive cells,[3],4.6 ± 1.7%
O=C1Nc2ccccc2/C1=C\c1c(Cl)[nH]c2ccccc12,percent Bodipy-positive cells,library stock concentration: 80 uM,13.2 ± 6.2%
same,percent Bodipy-positive cells,library stock concentration: 400 uM,7.26 ± 1.4%
same,percent Bodipy-positive cells,[1],9.51 ± 0.98%
same,percent Bodipy-positive cells,[3],37.8 ± 9.6%
"CCCCC/C=C/C=C1/C(=O)C=C[C@@H]1C/C=C\CCCC(=O)O [15-deoxy-.DELTA.12,14-Prostaglandin J2]",percent Bodipy-positive cells,[2],20.9% and 12.9%
NC[C@@H]1O[C@@H](O[C@H]2[C@H](O)[C@@H](O[C@H]3O[C@H](CO)[C@@H](O)[C@H](N)[C@H]3O)[C@H](N)C[C@@H]2N)[C@@H](O)[C@H](O)[C@H]1O [Kanamycin a sulfate],percent Bodipy-positive cells,[3],17 ± 3.8%
NC[C@@H]1O[C@@H](O[C@H]2[C@H](O)[C@@H](O[C@H]3O[C@H](CO)[C@@H](O)[C@H](N)[C@H]3O)[C@H](N)C[C@@H]2N)[C@@H](O)[C@H](O)[C@H]1O [Kanamycin A sulfate],percent Bodipy-positive cells,,49.8 ± 20%
